These results are taken from the supplement of paper PMC11546906.

For this experiment, the system named is Escherichia coli 42 (mcr-1-positive clinical isolate). The experiment in a line: OD600 after 24 h growth with compound plus colistin (absorbance units (OD600)); higher = more bacterial growth (less inhibition). The following applies: first compound 25 µM; colistin concentration 0.5 ug/mL; incubation time 24 h; 37 °C.

Where a name gives a salt, the structure may show the parent alone. Some of the results follow. Single values are uncertain here, since repeats match poorly.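 Screen of FDA-approved drugs, each combined with colistin at one-eighth of its MIC, against a multidrug-resistant mcr-1-positive clinical E. coli isolate; growth read as OD600 after 24 h. Bacteria without drug were the growth control and plain broth the blank. A combination counted as active when OD600 fell below 0.2.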

For the compound `Cc1ccc(Nc2nccc(N(C)c3ccc4c(C)n(C)nc4c3)n2)cc1S(N)(=O)=O` [Pazopanib] + CCC(C)CCCC(=O)N[C@@H](CCN)C(=O)N[C@H](C(=O)N[C@@H](CCN)C(=O)N[C@H]1CCNC(=O)[C@H]([C@@H](C)O)NC(=O)[C@H](CCN)NC(=O)[C@H](CCN)NC(=O)[C@H](CC(C)C)NC(=O)[C@@H](CC(C)C)NC(=O)[C@H](CCN)NC1=O)[C@@H](C)O [colistin], the OD600 was inactive: 0.984.
The same measure for `CC(=O)Oc1ccccc1C(=O)Nc1ncc([N+](=O)[O-])s1` [Nitazoxanide] + CCC(C)CCCC(=O)N[C@@H](CCN)C(=O)N[C@H](C(=O)N[C@@H](CCN)C(=O)N[C@H]1CCNC(=O)[C@H]([C@@H](C)O)NC(=O)[C@H](CCN)NC(=O)[C@H](CCN)NC(=O)[C@H](CC(C)C)NC(=O)[C@@H](CC(C)C)NC(=O)[C@H](CCN)NC1=O)[C@@H](C)O [colistin]: inactive: 0.874; for `CCCN(CCC)S(=O)(=O)c1ccc(C(=O)O)cc1` [Probenecid] + CCC(C)CCCC(=O)N[C@@H](CCN)C(=O)N[C@H](C(=O)N[C@@H](CCN)C(=O)N[C@H]1CCNC(=O)[C@H]([C@@H](C)O)NC(=O)[C@H](CCN)NC(=O)[C@H](CCN)NC(=O)[C@H](CC(C)C)NC(=O)[C@@H](CC(C)C)NC(=O)[C@H](CCN)NC1=O)[C@@H](C)O [colistin]: inactive: 1.15; for `CC(=O)OCC(=O)[C@H]1CC[C@H]2[C@@H]3CCC4=CC(=O)CC[C@]4(C)[C@H]3CC[C@]12C` [Deoxycorticosterone acetate] + CCC(C)CCCC(=O)N[C@@H](CCN)C(=O)N[C@H](C(=O)N[C@@H](CCN)C(=O)N[C@H]1CCNC(=O)[C@H]([C@@H](C)O)NC(=O)[C@H](CCN)NC(=O)[C@H](CCN)NC(=O)[C@H](CC(C)C)NC(=O)[C@@H](CC(C)C)NC(=O)[C@H](CCN)NC1=O)[C@@H](C)O [colistin]: inactive: 1.06.
The same measure for `Cc1[nH]c2ccccc2c1CCNCc1ccc(/C=C/C(=O)NO)cc1` [Panobinostat] + CCC(C)CCCC(=O)N[C@@H](CCN)C(=O)N[C@H](C(=O)N[C@@H](CCN)C(=O)N[C@H]1CCNC(=O)[C@H]([C@@H](C)O)NC(=O)[C@H](CCN)NC(=O)[C@H](CCN)NC(=O)[C@H](CC(C)C)NC(=O)[C@@H](CC(C)C)NC(=O)[C@H](CCN)NC1=O)[C@@H](C)O [colistin]: inactive: 1.11; for `CCN(CC)CCNC(=O)c1c(C)[nH]c(/C=C2\C(=O)Nc3ccc(F)cc32)c1C` [Sunitinib Malate] + CCC(C)CCCC(=O)N[C@@H](CCN)C(=O)N[C@H](C(=O)N[C@@H](CCN)C(=O)N[C@H]1CCNC(=O)[C@H]([C@@H](C)O)NC(=O)[C@H](CCN)NC(=O)[C@H](CCN)NC(=O)[C@H](CC(C)C)NC(=O)[C@@H](CC(C)C)NC(=O)[C@H](CCN)NC1=O)[C@@H](C)O [colistin]: inactive: 1.14; for `CN(C)CCOC(c1ccc(Cl)cc1)c1ccccn1` (centres undefined) [Carbinoxamine Maleate Salt] + CCC(C)CCCC(=O)N[C@@H](CCN)C(=O)N[C@H](C(=O)N[C@@H](CCN)C(=O)N[C@H]1CCNC(=O)[C@H]([C@@H](C)O)NC(=O)[C@H](CCN)NC(=O)[C@H](CCN)NC(=O)[C@H](CC(C)C)NC(=O)[C@@H](CC(C)C)NC(=O)[C@H](CCN)NC1=O)[C@@H](C)O [colistin]: inactive: 1.08.
The value for `CC(C)NCC(O)COc1cccc2ccccc12` (centres undefined) [Propranolol hydrochloride] + CCC(C)CCCC(=O)N[C@@H](CCN)C(=O)N[C@H](C(=O)N[C@@H](CCN)C(=O)N[C@H]1CCNC(=O)[C@H]([C@@H](C)O)NC(=O)[C@H](CCN)NC(=O)[C@H](CCN)NC(=O)[C@H](CC(C)C)NC(=O)[C@@H](CC(C)C)NC(=O)[C@H](CCN)NC1=O)[C@@H](C)O [colistin] was inactive: 0.82; that for `CCC[C@@H]1C[C@@H](C(=O)N[C@@H]([C@H]2O[C@H](SC)[C@H](O)[C@@H](O)[C@H]2O)[C@@H](C)O)N(C)C1` [Lincomycin hydrochloride monohydrate] + CCC(C)CCCC(=O)N[C@@H](CCN)C(=O)N[C@H](C(=O)N[C@@H](CCN)C(=O)N[C@H]1CCNC(=O)[C@H]([C@@H](C)O)NC(=O)[C@H](CCN)NC(=O)[C@H](CCN)NC(=O)[C@H](CC(C)C)NC(=O)[C@@H](CC(C)C)NC(=O)[C@H](CCN)NC1=O)[C@@H](C)O [colistin] was inactive: 1.1.
